Values of other authors, collected in patent US10640547B2, “Immunotherapy against melanoma and other cancers” (IMMATICS BIOTECHNOLOGIES GMBH, priority 2016, dated 2020).
At least one structure is not confirmed: it was looked up by name or label, or the drawing left a doubt.

Test system: advanced melanoma
Settings: cited from earlier work

For `CCCS(=O)(=O)Nc1ccc(F)c(C(=O)c2c[nH]c3ncc(-c4ccc(Cl)cc4)cc23)c1F` [Vemurafenib, vemurafenib], the median duration is listed as 5-6 months and the response rate is listed as 40-50%.
